# Record: PubChem BioAssay AID743454 (Peter MacCallum Cancer Centre, 2014)
# Test: 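Search for knock-downs that restore vorinostat killing in resistant colon cancer cells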 (primary screen)
# Cell system: human HCT116-VR colon cancer cells, selected for vorinostat resistance
# Knock-down reagent: siRNA pool against human genes, 40 nM siRNA pool
# Time to read-out: vorinostat for 24 h, read-out about 72 h after transfection
# Conditions: vorinostat at 2.5 µM final
# Detection: 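Two measures, CellTiter-Fluor viability and luminescent caspase 3/7 activity, each as fold change against same-plate mock wells, mean of duplicates, then screen-wide robust z-score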
# Scale: viability robust z-score: higher = more viable cells than screen typical; caspase robust z-score: higher = more caspase 3/7 activity than screen typical
# Rule for the call: 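Hits are knock-downs in viability class RV1/RV2 or caspase class CA1/CA2, excluding ones that killed cells in the no-drug cell-count arm; hits then retested with single siRNAs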
# In all, the deposit lists about 18,000 reagents; this is a part drawn at random. Of all reagents, 450 (2.5%) are marked active. 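Single biological run; no consistent viability z cut-off exists, so the class columns, not z-scores, define the calls.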 Unmarked entries are inactive.
gene symbol,viability hit class,caspase hit class,viability robust z-score,caspase robust z-score
FIBP (GeneID 9158),no change,no change,2,-0.66
GPR21 (GeneID 2844),no change,no change,0.7,-1
APOBEC2 (GeneID 10930),no change,no change,0.28,-0.24
UGT1A5 (GeneID 54579),no change,no change,1.07,-0.36
CYP19A1 (GeneID 1588),no change,no change,0.16,1.15
TASOR (GeneID 23272),no change,no change,-0.24,0.76
OR1E2 (GeneID 8388),no change,no change,1.96,-0.45
AKIRIN1 (GeneID 79647),no change,no change,0.4,0.56
RLF (GeneID 6018),no change,no change,-0.82,1.21
RILPL2 (GeneID 196383),no change,no change,-0.28,0.52
NAGK (GeneID 55577),no change,no change,-1.77,0.68
SPIC (GeneID 121599),no change,no change,0.32,-0.87
ETV4 (GeneID 2118),no change,no change,0.38,-0.94
PSME2 (GeneID 5721),no change,no change,-1.75,-1.1
FOXK2 (GeneID 3607),no change,no change,0.82,2.03
DYNC1I2 (GeneID 1781),no change,no change,-1.39,0.86
SLC25A31 (GeneID 83447),no change,no change,0.79,-0.27
ANKRD20A2P (GeneID 441430),no change,no change,0.54,-1.17
LZTS2 (GeneID 84445),no change,no change,0.04,0.16
LRWD1 (GeneID 222229),no change,no change,0.09,-0.3
TMEM91 (GeneID 641649),no change,no change,1.12,2.09
CDKN2AIP (GeneID 55602),no change,no change,0.43,-0.07
EGLN2 (GeneID 112398),no change,no change,0.64,-0.23
CABYR (GeneID 26256),no change,no change,0.2,-0.4
CCZ1 (GeneID 51622),no change,no change,1.31,-0.68
PPP1R3C (GeneID 5507),no change,no change,0.52,0.11
IBSP (GeneID 3381),no change,no change,0.28,1.66
NDUFB10 (GeneID 4716),no change,no change,-0.3,-0.41
MYL7 (GeneID 58498),no change,no change,-1.18,4.39
EEFSEC (GeneID 60678),no change,no change,1.08,1.92
SYNGR3 (GeneID 9143),no change,no change,0.04,-0.3
MCUB (GeneID 55013),no change,no change,0.59,-0.56
DDX5 (GeneID 1655),no change,no change,-0.29,-0.19
ACAD11 (GeneID 84129),no change,no change,0.13,-0.8
NMS (GeneID 129521),no change,no change,-0.16,0.5
MX1 (GeneID 4599),no change,no change,-0.27,0.45
UNC13D (GeneID 201294),no change,no change,-0.59,-0.73
GADD45A (GeneID 1647),no change,no change,0.99,-1.11
LRTOMT (GeneID 220074),no change,no change,0.53,-1.08
CEP89 (GeneID 84902),no change,no change,-0.14,-0.55
KLF15 (GeneID 28999),no change,no change,-0.42,1.11
CHST13 (GeneID 166012),no change,no change,-0.39,0.6
COLCA1 (GeneID 399948),no change,no change,0.38,2.51
ROPN1L (GeneID 83853),no change,no change,1.1,-1.06
ARHGAP29 (GeneID 9411),no change,no change,2.16,0.78
RPP38-DT (GeneID 221060),no change,no change,-1.4,-1.24
AARD (GeneID 441376),no change,no change,0.52,-0.25
GRXCR2 (GeneID 643226),no change,no change,0.49,-0.53
ZNF835 (GeneID 90485),no change,no change,1.22,1.33
SLC16A8 (GeneID 23539),no change,no change,0.02,-0.56
CCDC144NL (GeneID 339184),no change,no change,1.82,2.34
NDUFB7 (GeneID 4713),no change,no change,0.45,0.64
ZNF671 (GeneID 79891),no change,no change,0.18,-0.3
LPIN3 (GeneID 64900),no change,no change,0.68,-0.62
POLL (GeneID 27343),no change,no change,-0.06,-0.29
NUP93 (GeneID 9688),RV2 (reduced viability) (active),no change,-3.3,2.56
TMEM257 (retired record) (GeneID 9142),no change,no change,0.24,-0.53

A portion from the list above, for reference:
gene symbol,viability hit class,caspase hit class,viability robust z-score,caspase robust z-score
NDUFB10 (GeneID 4716),no change,no change,-0.3,-0.41
MYL7 (GeneID 58498),no change,no change,-1.18,4.39
